Test results from ChEMBL document CHEMBL1121400, “Quantitative structure--activity correlations of rifamycins as inhibitors of viral RNA-directed DNA polymerase and mammalian alpha and beta DNA polymerases” (J Med Chem, 1980).

Legend:
[1] = Partition coefficient (logP); conditions: octanol/water
[2] = The logarithm of the reciprocal of the concentration which produces 50% inhibition of mammalian alpha DNA polymerase.
Method in brief: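 Mammalian α or β DNA polymerase in 100 µL reaction: enzyme in 50% glycerol, 1 mM DTT, 0.5 M KCl, Tris-HCl pH 7.5; Me2SO compound; cocktail with MnCl2, NaF, [3H]dGTP, poly(2'-O-methylC)·d(pG)12-18 template. Compound added first, then enzyme, then cocktail; 45 min at 37 °C. Product radioactivity, background-corrected against Me2SO controls; 50% concentration from triplicate five-dose curves, 10^-3–10^-7 M, expressed as log(1/C).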

COC1/C=C/OC2(C)Oc3c(C)c(O)c4c(O)c(c(/C=N/N5CCN(C)CC5)cc4c3C2=O)NC(=O)/C(C)=C\C=C\C(C)C(O)C(C)C(O)C(C)C(OC(C)=O)C1C (configuration not stated)
logP [1]: 1.29
Log 1/C [2]: 3.47
